Data as given in PubChem BioAssay AID1508597 (Cure First, 2020).

Test: 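Survival screen with siRNA in ovarian cancer cells derived from patients, with or without rucaparib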 (primary screen)
Cells: human ovarian carcinoma lines grown from tumours: OCI-P5x (papillary serous) and OCI-C5x (clear cell)
Reagent: siRNA pool against human genes, 1.25 pmol siRNA per well
Time to read-out: 72 h or 96 h, depending on the cell culture
Treatment: rucaparib 20 µM (about IC30) or vehicle, present until read-out
Rucaparib or vehicle: Rucaparib
Cell line: OCI-P5x (serous)
Detection: 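Luminescent ATP-based viability assay read 72 or 96 h after transfection, depending on culture, given as normalised percent viability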
Scale: viability, normalised: higher = more viable cells remaining
Active means: 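Active when normalised viability falls below 80 percent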
Calls: active = viability under 80%; inactive = viability 80% or more
This is an unselected part of the about 2,100 reagents, in one setting of the screen. 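Calls flag viability under 80% in either arm, not effects specific to rucaparib; the reference for percent is not stated.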 Entries without a mark were called inactive. A reagent listed more than once was tested more than once; the source does not tell the runs apart. No sequences are given here. The record does not give: the 100% reference.

| gene knocked down | technical replicate | viability, normalised (%) |
| --- | --- | --- |
| BABAM1 | 1 | 66.5 (active) |
| BABAM1 | 1 | 89.6 |
| BABAM1 | 2 | 75.6 (active) |
| BABAM1 | 2 | 77.1 (active) |
| BABAM1 | 3 | 92.6 |
| BABAM1 | 3 | 80.9 |
| BRSK2 | 1 | 67.1 (active) |
| BRSK2 | 2 | 79 (active) |
| BRSK2 | 3 | 55.4 (active) |
| GNE | 1 | 66.6 (active) |
| GNE | 2 | 81.2 |
| GNE | 3 | 60.5 (active) |
| MACROH2A2 | 1 | 52.7 (active) |
| MACROH2A2 | 2 | 44.3 (active) |
| MACROH2A2 | 3 | 31.2 (active) |
| PMVK | 1 | 77.3 (active) |
| PMVK | 2 | 88.3 |
| PMVK | 3 | 76.5 (active) |
| FGFR3 | 1 | 56.2 (active) |
| FGFR3 | 2 | 73.9 (active) |
| FGFR3 | 3 | 66.8 (active) |
| IFIH1 | 1 | 80.5 |
| IFIH1 | 2 | 51 (active) |
| IFIH1 | 3 | 66.8 (active) |
| EIF2AK4 | 1 | 134 |
| EIF2AK4 | 2 | 164 |
| EIF2AK4 | 3 | 144 |
| DDX6 | 1 | 62.2 (active) |
| DDX6 | 2 | 66.2 (active) |
| DDX6 | 3 | 68.7 (active) |

Reprinted from the entries so far for reference:
| gene knocked down | technical replicate | viability, normalised (%) |
| --- | --- | --- |
| PMVK | 1 | 77.3 (active) |
| PMVK | 2 | 88.3 |
| PMVK | 3 | 76.5 (active) |

Additional entries follow.
| gene knocked down | technical replicate | viability, normalised (%) |
| --- | --- | --- |
| SLC1A3 | 1 | 48.2 (active) |
| SLC1A3 | 2 | 50.2 (active) |
| SLC1A3 | 3 | 57.7 (active) |
| PHF23 | 1 | 48.2 (active) |
| PHF23 | 2 | 54.1 (active) |
| PHF23 | 3 | 45.4 (active) |
| SLC25A26 | 1 | 50.1 (active) |
| SLC25A26 | 2 | 57.7 (active) |
| SLC25A26 | 3 | 65.6 (active) |
| DNA2 | 1 | 104 |
| DNA2 | 2 | 85.6 |
| DNA2 | 3 | 95.3 |
| FOXA2 | 1 | 54.3 (active) |
| FOXA2 | 2 | 56.5 (active) |
| FOXA2 | 3 | 67.7 (active) |
| PARP1 | 1 | 71.7 (active) |
| PARP1 | 1 | 52.9 (active) |
| PARP1 | 2 | 54.3 (active) |
| PARP1 | 2 | 70.1 (active) |
| PARP1 | 3 | 59.7 (active) |
| PARP1 | 3 | 80.3 |
| ARID4B | 1 | 87.8 |
| ARID4B | 2 | 71 (active) |
| ARID4B | 3 | 71.4 (active) |
| PIK3C3 | 1 | 84.9 |
| PIK3C3 | 2 | 87.4 |
| PIK3C3 | 3 | 89.6 |
